Measured values reported in PubChem BioAssay AID248 (DTP/NCI, 2004).
The list does not hold the whole screen: it gathers some chemical classes. Other doses and runs of a compound may be missing. T/C gives the treated animals as a percentage of the vehicle group. For survival time, the PubChem record calls one and a half times the control and up active, and a quarter to a half above the control has no call in these data; cut-offs in other NCI protocols can differ. Schedules are NCI's codes, read here as Q, the interval in days (D) or hours (H), X, the number of doses. Some T/C values are followed by the survivors on the day toxicity was checked, most often the fifth; without a count or a note in brackets, all were alive then. Some entries were tested several times; their values stand side by side, smallest first. Counts like (3×) stand for listed records that agree. Some schedules carry Z or #; the key to these is not given.

Test system: L1210 leukemia ip in BDF1 mice, survival T/C
Experiment: NCI In Vivo Anticancer Drug Screen. Data for tumor model L1210 Leukemia (intraperitoneal) in B6D2F1 (BDF1) mice
Details: T/C endpoint: mean survival time, higher T/C = longer survival

NC(=O)c1[nH]cnc1/N=N\N(CCCl)CCCl
T/C (dose: 56.0 mg/kg/injection, schedule: Q#A X Z (ip), vehicle: carboxymethylcellulose (CMC)): 126 and 160 % of control | T/C (dose: 62.5 mg/kg/injection, schedule: Q03HX016 (ip), vehicle: carboxymethylcellulose (CMC)): 532 % of control | T/C (dose: 65.0 mg/kg/injection, schedule: Q01DX009 (ip), vehicle: carboxymethylcellulose (CMC)): 236 % of control | T/C (dose: 65.0 mg/kg/injection, schedule: Q01DX017 (ip), vehicle: carboxymethylcellulose (CMC)): 280 % of control | T/C (dose: 65.0 mg/kg/injection, schedule: Q01DX Z (ip), vehicle: carboxymethylcellulose (CMC)): 265 and 400 % of control | T/C (dose: 65.0 mg/kg/injection, schedule: Q01DX Z (sc), vehicle: carboxymethylcellulose (CMC)): 200 % of control | T/C (dose: 65.9 mg/kg/injection, schedule: Q01DX001 (ip), vehicle: steroid suspending solution): 150 % of control | T/C (dose: 66.0 mg/kg/injection, schedule: Q03DX Z (ip), vehicle: carboxymethylcellulose (CMC)): 348 % of control | T/C (dose: 67.0 mg/kg/injection, schedule: Q01DX001 (ip), vehicle: carboxymethylcellulose (CMC)): 116 and 140 % of control | T/C (dose: 67.0 mg/kg/injection, schedule: Q07DX Z (ip), vehicle: carboxymethylcellulose (CMC)): 175 % of control | T/C (dose: 74.0 mg/kg/injection, schedule: Q06HX008 (ip), vehicle: carboxymethylcellulose (CMC)): 309 % of control | T/C (dose: 75.0 mg/kg/injection, schedule: Q01DX005 (oral), vehicle: carboxymethylcellulose (CMC)): 168 % of control | T/C (dose: 75.0 mg/kg/injection, schedule: Q01DX006 (iv), vehicle: carboxymethylcellulose (CMC)): 224 % of control [5 of 6 alive] | T/C (dose: 75.0 mg/kg/injection, schedule: Q01DX009 (oral), vehicle: carboxymethylcellulose (CMC)): 242 % of control | T/C (dose: 75.0 mg/kg/injection, schedule: Q01DX017 (oral), vehicle: steroid suspending solution): 148 and 192 % of control | T/C (dose: 75.0 mg/kg/injection, schedule: Q01DX Z (im), vehicle: carboxymethylcellulose (CMC)): 327 % of control | T/C (dose: 75.0 mg/kg/injection, schedule: Q01DX Z (ip), vehicle: carboxymethylcellulose (CMC)): 225, 319, 340 % of control | T/C (dose: 75.0 mg/kg/injection, schedule: Q01DX Z (oral), vehicle: carboxymethylcellulose (CMC)): 254 and 343 % of control | T/C (dose: 75.0 mg/kg/injection, schedule: Q01DX Z (sc), vehicle: carboxymethylcellulose (CMC)): 255 % of control | T/C (dose: 75.0 mg/kg/injection, schedule: Q03HX008 (oral), vehicle: carboxymethylcellulose (CMC)): 210 % of control | T/C (dose: 75.0 mg/kg/injection, schedule: Q04DX005 (oral), vehicle: carboxymethylcellulose (CMC)): 126 % of control | T/C (dose: 75.0 mg/kg/injection, schedule: Q06HX012 (oral), vehicle: steroid suspending solution): 120 % of control | T/C (dose: 75.0 mg/kg/injection, schedule: Q06HX020 (oral), vehicle: steroid suspending solution): 191 % of control | T/C (dose: 75.0 mg/kg/injection, schedule: Q06HX068 (oral), vehicle: steroid suspending solution): 134 % of control | T/C (dose: 75.0 mg/kg/injection, schedule: Q## X009 (oral), vehicle: carboxymethylcellulose (CMC)): 189 % of control | T/C (dose: 78.0 mg/kg/injection, schedule: Q01DX001 (ip), vehicle: other): 138 and 142 % of control | T/C (dose: 83.0 mg/kg/injection, schedule: Q04DX003 (ip), vehicle: other): 195 and 235 % of control | T/C (dose: 84.0 mg/kg/injection, schedule: Q#A X Z (ip), vehicle: carboxymethylcellulose (CMC)): 110 % of control | T/C (dose: 87.0 mg/kg/injection, schedule: Q01DX009 (ip), vehicle: other): 239, 243 [9 of 10 alive], 291 % of control | T/C (dose: 90.0 mg/kg/injection, schedule: Q12HX004 (ip), vehicle: carboxymethylcellulose (CMC)): 234 % of control | T/C (dose: 93.0 mg/kg/injection, schedule: Q01DX001 (ip), vehicle: carboxymethylcellulose (CMC)): 168 % of control | T/C (dose: 94.2 mg/kg/injection, schedule: Q01DX001 (ip), vehicle: steroid suspending solution): 165 % of control | T/C (dose: 95.0 mg/kg/injection, schedule: Q04DX004 (ip), vehicle: other): 261 % of control | T/C (dose: 99.0 mg/kg/injection, schedule: Q03DX Z (ip), vehicle: carboxymethylcellulose (CMC)): 348 and 357 % of control | T/C (dose: 100.0 mg/kg/injection, schedule: Q01DX001 (ip), vehicle: carboxymethylcellulose (CMC)): 139 (2×), 146, 150, 157, 158, 172 % of control | T/C (dose: 100.0 mg/kg/injection, schedule: Q01DX001 (ip), vehicle: saline): 131 and 139 % of control | T/C (dose: 100.0 mg/kg/injection, schedule: Q01DX001 (ip), vehicle: steroid suspending solution, evaluated on day 6): 195 % of control | T/C (dose: 100.0 mg/kg/injection, schedule: Q01DX001 (ip), vehicle: steroid suspending solution, evaluated on day 28): 149 % of control | T/C (dose: 100.0 mg/kg/injection, schedule: Q01DX001 (ip), vehicle: steroid suspending solution, evaluated on day 60): 118, 128, 195, 280 % of control | T/C (dose: 100.0 mg/kg/injection, schedule: Q01DX001 (ip), vehicle: water): 150, 159, 161, 279 % of control | T/C (dose: 100.0 mg/kg/injection, schedule: Q01DX001 (iv), vehicle: water): 154, 162, 178 % of control | T/C (dose: 100.0 mg/kg/injection, schedule: Q01DX005 (ip), vehicle: carboxymethylcellulose (CMC)): 188 and 340 % of control | T/C (dose: 100.0 mg/kg/injection, schedule: Q01DX009 (ip), vehicle: carboxymethylcellulose (CMC)): 308 % of control | T/C (dose: 100.0 mg/kg/injection, schedule: Q01DX009 (ip), vehicle: water): 329 % of control | T/C (dose: 100.0 mg/kg/injection, schedule: Q01DX009 (oral), vehicle: carboxymethylcellulose (CMC)): 212 % of control | T/C (dose: 100.0 mg/kg/injection, schedule: Q01DX017 (ip), vehicle: carboxymethylcellulose (CMC)): 197, 248 [9 of 10 alive], 302 % of control | T/C (dose: 100.0 mg/kg/injection, schedule: Q01DX Z (ip), vehicle: carboxymethylcellulose (CMC)): 179 % of control | T/C (dose: 100.0 mg/kg/injection, schedule: Q01DX Z (oral), vehicle: carboxymethylcellulose (CMC)): 178 % of control | T/C (dose: 100.0 mg/kg/injection, schedule: Q02DX009 (ip), vehicle: carboxymethylcellulose (CMC)): 283, 293, 351 % of control | T/C (dose: 100.0 mg/kg/injection, schedule: Q03HX003 (ip), vehicle: carboxymethylcellulose (CMC)): 187 % of control | T/C (dose: 100.0 mg/kg/injection, schedule: Q03HX008 (ip), vehicle: water): 348 % of control | T/C (dose: 100.0 mg/kg/injection, schedule: Q04DX002 (ip), vehicle: water): 130 and 178 % of control | T/C (dose: 100.0 mg/kg/injection, schedule: Q04DX003 (ip), vehicle: carboxymethylcellulose (CMC)): 195 % of control | T/C (dose: 100.0 mg/kg/injection, schedule: Q04DX003 (ip), vehicle: water): 319 % of control | T/C (dose: 100.0 mg/kg/injection, schedule: Q04DX003 (oral), vehicle: carboxymethylcellulose (CMC)): 177 % of control | T/C (dose: 100.0 mg/kg/injection, schedule: Q04DX005 (ip), vehicle: carboxymethylcellulose (CMC)): 290, 322, 368 % of control | T/C (dose: 100.0 mg/kg/injection, schedule: Q04DX Z (oral), vehicle: carboxymethylcellulose (CMC)): 256 % of control | T/C (dose: 100.0 mg/kg/injection, schedule: Q08DX002 (ip), vehicle: carboxymethylcellulose (CMC)): 178 % of control | T/C (dose: 100.0 mg/kg/injection, schedule: Q08DX002 (ip), vehicle: water): 289 % of control | T/C (dose: 100.0 mg/kg/injection, schedule: Q08DX003 (ip), vehicle: carboxymethylcellulose (CMC)): 263 % of control | T/C (dose: 100.0 mg/kg/injection, schedule: Q## X001 (ip), vehicle: carboxymethylcellulose (CMC)): 208 % of control | T/C (dose: 100.0 mg/kg/injection, schedule: Q## X003 (ip), vehicle: carboxymethylcellulose (CMC)): 213 % of control
